# Laboratory results as given in patent US9714247B2, “Multiple kinase pathway inhibitors” (Mannkind Corporation, priority 2012, dated 2017).
# Tests used:
# [1] = system: PLCγ2 phosphorylation in Ramos cells; assay: PLCγ2 phosphorylation by flow cytometry
# Ramos = assay: CellTiter-Glo proliferation/viability assay; format: cell-based, human; details: read-out: Ramos EC50
# DoHH2 = assay: CellTiter-Glo proliferation/viability assay; format: cell-based, human; details: read-out: DoHH2 EC50
# [2] = system: phosphorylation of SFKs in Ramos cells; assay: SFK phosphorylation (Tyr 416) by flow cytometry; details: 0.3 uM, SFK phosphorylated at Tyr 416
compound,measurement,setting,value
CCN(CC)CCOc1ccc(Nc2cc3c(cn2)cc(-c2ccccc2)c(=O)n3C(C)CO)nc1 (centres unmarked),pPLCγ % inhibition,"[1]; 0.3 uM, anti-phospho PLCγ2 (Tyr759)",12%
same,EC50,"[1]; read-out: Inhibition of phosphorylation of PLC-γ2 EC50, anti-phospho PLCγ2 (Tyr1217), four concentrations",> 3000 nM
same,EC50,Ramos,1000 to 10000 nM
same,EC50,DoHH2,< 1000 nM
same,pSRC % inhibition,[2],18%

# The match of structure and compound is tentative.
